Primary screen of a compound library

Chains of the proteins cited; added tags and fusions are not shown.
UniProt E9BF75, entry or part of it: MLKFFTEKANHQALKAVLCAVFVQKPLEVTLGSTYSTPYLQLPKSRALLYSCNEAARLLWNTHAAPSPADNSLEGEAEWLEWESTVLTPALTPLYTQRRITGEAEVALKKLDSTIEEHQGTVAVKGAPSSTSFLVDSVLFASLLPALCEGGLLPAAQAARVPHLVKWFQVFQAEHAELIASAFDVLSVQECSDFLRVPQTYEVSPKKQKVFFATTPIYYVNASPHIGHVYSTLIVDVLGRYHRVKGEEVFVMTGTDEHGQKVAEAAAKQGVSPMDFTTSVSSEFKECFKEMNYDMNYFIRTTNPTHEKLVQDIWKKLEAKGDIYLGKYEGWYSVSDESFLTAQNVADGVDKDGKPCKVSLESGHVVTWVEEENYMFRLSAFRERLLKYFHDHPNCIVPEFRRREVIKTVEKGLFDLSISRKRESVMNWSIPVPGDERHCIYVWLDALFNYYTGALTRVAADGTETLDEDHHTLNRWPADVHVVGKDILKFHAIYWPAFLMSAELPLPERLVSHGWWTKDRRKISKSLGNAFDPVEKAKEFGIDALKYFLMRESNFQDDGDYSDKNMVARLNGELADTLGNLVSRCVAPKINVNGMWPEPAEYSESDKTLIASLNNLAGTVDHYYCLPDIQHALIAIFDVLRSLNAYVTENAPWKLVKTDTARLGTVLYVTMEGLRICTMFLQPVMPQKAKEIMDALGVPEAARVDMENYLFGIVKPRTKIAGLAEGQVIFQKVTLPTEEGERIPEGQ

The values are deposited in ChEMBL (CHEMBL3988442, “University of Dundee, Small-Polar-MMV Screening Library” (2021)).

LdMetRS: 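Primary screen of methionyl-tRNA synthetase; the read-out is not stated. Target: Methionyl-tRNA synthetase (putative), Leishmania donovani (UniProt E9BF75). The test concentration is not given. Values are per cent inhibition. About 68,000 compounds were tested under these conditions; 0.035% (about 24) showed 50% or more at least once.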
Mtb heat-shock: 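Assay on Mycobacterium tuberculosis, filed only as a heat shock assay from Cornell; the read-out is not stated. The concentration is filed as 10 mM, unlikely as a test dose, so the dose is not known. Higher reads as stronger inhibition (inferred: compounds with an IC50 in retests scored well above the rest). Of about 69,000 compounds tested this way, about 930 (1.4%) reached 50% or more in at least one test.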

Results are percentages, as filed.
How 0% and 100% were set is not recorded. Most values in the screen are low, and negative values occur.
Compounds were drawn at random from those tested, without regard to their results.
A dash means the value is not listed here; it may have been measured.

SMILES,LdMetRS,Mtb heat-shock
CN(CC(=O)N1CCC(Cc2cccc(C(N)=O)c2)C1)C1CCCC1 (configuration not stated),8.027%,-9.251%
Cc1ccc(CNCCC(O)(c2nccn2C)C(F)(F)F)o1 (configuration not stated),12.04%,-16.27%
CC(Oc1ccccc1C(F)(F)F)C(=O)NS(=O)(=O)C(C)C (configuration not stated),14.29%,12.04%
N#Cc1ccc2c(c1)CN(C(=O)c1nc[nH]n1)C2c1cnco1 (configuration not stated),17.03%,0.9183%
O=C(O)C(F)(F)F.O=C(O)C(F)(F)F.[H][C@@]12CN(Cc3cccc(F)c3)C[C@]1([H])OCCN2Cc1c(C)noc1C,-,39.31%
CCSc1nc(N)c(NC(=O)c2ccc(C)cc2)c(=O)[nH]1,8.633%,6.779%
Cc1ccc(C)c(OCCN(C)C(=O)C2CCCN2C(N)=O)c1C (configuration not stated),7.796%,-5.146%
CNS(=O)(=O)c1cccc(C(C)NCc2cccc(O)c2)c1 (configuration not stated),21.43%,-10.54%
NC(=O)c1ccc(C(=O)N2CCCCC2C2OCCO2)cc1 (configuration not stated),15.92%,-23.27%
CC(C)c1nc(CN(C)C(=O)c2ccc3c(c2)OCC(=O)N3)cs1,3.581%,15.01%
O=C1CCSCC(C(=O)N2CCN(C3CCCCC3)CC2)N1 (configuration not stated),11.33%,-11.49%
CN(CC1CCCCC1)C(=O)c1cn(C)nc1-c1cccnc1,6.354%,0.08396%
[H][C@@]12CCC(=O)N(CCCOC)[C@]1([H])CCN(c1cnc3ccccc3n1)C2,-,-14.02%
Cc1cc(-c2nc(-c3c(C)ncc4c3CCNC4)no2)nc(C)n1,2.752%,-8.065%
CCN(Cc1nc2c(cnn2C)c(=O)[nH]1)Cc1ccccc1Cl,25.41%,4.601%
Cc1ccc2c(ccn2CCC(=O)O)c1,11.52%,-9.458%
O=C(NCCCn1ccnc1)c1csc2c1CCCC2,-3.693%,-2.278%
CCC1=NC(SCC(=O)c2ccc(C)cc2)c2cc(CC)sc2N1 (configuration not stated),16.33%,10.51%
COCCN1CCOCC12CCN(c1nccs1)CC2,10.64%,-
CN(C)C(=O)CN1CCC2(CCN(CC3CC3)CC2)C1=O.O=C(O)C(F)(F)F,-,-28.35%
COc1cc(-c2nc3c([nH]2)CCCNC3=O)cc(OC)c1OC,-6.017%,-15%
O=C(CN1CCCS1(=O)=O)Nc1ccc(OC2CCCC2)cc1,10.99%,-4.306%
CCc1cc(N[C@@H]2C[C@H]3CC[C@@H]2C3)n2nccc2n1,12.63%,-
O=C(O)C(F)(F)F.[H][C@@]12CCN(CC(=O)NC)C[C@]1([H])CN(C(=O)c1ccccc1F)C2,-,-22.98%
CCSCCC(C)N(C)C(=O)c1ccc(C)o1 (configuration not stated),-4.467%,13.2%
CC(=O)N1CCCCCC1C1CCN(Cc2nc(C(C)C)no2)CC1.Cl (configuration not stated),-,1.242%
O=C(Cc1ccc(F)cc1)N1C[C@H]2CCN[C@H]2C1,11.2%,-
O=C(NCc1ccnc(OCC2CC2)c1)C1COc2ccccc2O1 (configuration not stated),5.866%,0.4184%
Cc1ccc(CN2CCn3c(CN(C)C(C)C)cnc3C2)s1.O=C(O)C(F)(F)F.O=C(O)C(F)(F)F,-,-14.26%
Cc1nc(C(=O)N2CCN(S(C)(=O)=O)CC2)c(-c2ccccc2)s1,6.997%,-0.9475%
CN(C)CCNC(=O)c1nc2c(s1)CCCN2C(=O)C1CC1,11.95%,-
CCc1nc(N2CCOCC2)ncc1C(=O)NC(c1cccs1)C(C)C (configuration not stated),8.511%,9.878%
Cc1ccsc1[C@@H]1CCN(C(=O)CCc2cc(O)no2)C[C@H]1O,1.075%,-17.86%
O=C(Nc1cccc(N2CCN(CC3CC3)CC2)c1)N1CCCC1,13.86%,2.036%
CCC(C)Oc1cc(C(=O)Nc2nc(C)ns2)ccn1 (configuration not stated),21.11%,-22.89%
COc1c(CNCCNC(=O)Cc2ccc(F)cc2)c(C)nn1C,2.222%,24.8%
Cc1csc(CNC(=O)N(C)Cc2nnc3n2CCC3)n1,14.49%,17.11%
O=C1COC2(CCN(C(=O)c3ccco3)CC2)CN1Cc1cccnc1,16.5%,-
O=C(O)C(F)(F)F.[H][C@]12CCN(Cc3ccco3)C[C@@]1([H])OCCN(C(=O)c1ccsc1)C2,-,11.86%
[H][C@]12CC[C@@]3(N=C(C)N(CCOC)C3=O)[C@@]1([H])CN(C(=O)NC(C)C)C2,-,-50.9%
O=C(c1ccc2c(c1)COC2)N1CCN(CC2CC2)CC1,8.92%,13.57%
COc1ccccc1NC(=O)NCCCn1nc2ccccn2c1=O,19.94%,-9.728%
OC1CCCN(Cc2cn(CC3CCN(C4CCSCC4)CC3)nn2)C1 (configuration not stated),2.091%,-17.42%
CN1CC2(CCN(C(=O)c3cc(-n4cccn4)ccc3Cl)CC2)OC1=O,6.25%,-32.89%
O=C(O)C(F)(F)F.[H][C@@]12COC[C@@H](NS(C)(=O)=O)[C@]1([H])CN(Cc1ccc(C)o1)C2,-,3.016%
CCS(=O)(=O)N1CCC(c2nc(C)c(C)c(N3CCCC3)n2)CC1,15.22%,-9.17%
Cc1cccc(CNCc2c(C(C)C)nn(C)c2N2CCOCC2)n1,13.3%,-9.308%
Cc1nc(N(C)C)nc(C)c1NS(=O)(=O)c1ccccc1Cl,6.475%,5.773%
C[C@@H]1CN(Cc2nc(C(N)=O)no2)CC[C@@]1(O)C1CC1,10.45%,-10.71%
CCN(CC)Cc1cn2c(n1)CN(C(=O)c1cnccn1)CC2.O=C(O)C(F)(F)F,-,-4.073%
O=C(CCN1CCCCO1)NCc1cn2c(n1)SCC2,-1.875%,-34.55%
Cc1nc(CN2CCOCC23CCN(c2ccc(C#N)cc2)CC3)cs1.O=C(O)C(F)(F)F,-,-29.92%
COc1ccc(OC)c(-n2cnnc2CCN)c1,-,9.74%
COCC1CC2(CCN(CC3CC3)CC2)CN1Cc1csc(C)n1.O=C(O)C(F)(F)F.O=C(O)C(F)(F)F (configuration not stated),-,-0.08515%
CC(=O)Nc1ccc(C(=O)N(C)Cc2ccc(F)cc2F)s1,10.18%,-6.484%
COc1ccc(CC(=O)NCCCc2nnc3nc(C)cc(C)n23)cc1,7.859%,12.59%
O=C(CCNC(=O)c1ccccc1F)NCCNc1cccnc1,120.5%,-8.225%
CCSc1ccc(C(=O)N2CCCCC2C(=O)NC(C)(C)C)cn1 (configuration not stated),17.62%,4.445%
Cc1cnccc1CN1CCN(C)C2(CCC(=O)N(CC3CC3)CC2)C1 (configuration not stated),18.44%,-15.33%
CSCCN(C)C(=O)C1(c2ccc(F)cc2F)CCOCC1,13.17%,-1.973%
CCN1C(=O)C[C@@H]2[C@@H]1CCN2S(=O)(=O)c1ccccc1,5.556%,-
Cc1ncc(CNC(=O)CCc2c(C)noc2C)c(C2CCCN2C)n1 (configuration not stated),17.51%,-1.199%
O=C(c1cc(Cl)c[nH]1)N1CCCC(c2cc(C(F)(F)F)[nH]n2)C1 (configuration not stated),18.86%,4.136%
CCCS(=O)(=O)NC(C)c1cccc(-n2cccn2)c1 (configuration not stated),8.377%,4.654%
COc1ccc(C2CCCN2c2ccc(C#N)cn2)c(OC)c1 (configuration not stated),16.33%,-1.695%
O=C(c1ccnnc1)N1C[C@H]2CCC[C@@]2(COCc2ccccn2)C1,6%,-
O=C(O)C(F)(F)F.[H][C@@]12CN(Cc3cccs3)C[C@]1([H])CN(C(=O)c1cccn1C)C2,-,-10.6%
COC(=O)C(NC(=O)c1ccc(C)cc1C)c1cccnc1 (configuration not stated),14.63%,-24.75%

Repeated from the top, 7 entries:

| SMILES | LdMetRS | Mtb heat-shock |
|---|---|---|
| `CN(CC(=O)N1CCC(Cc2cccc(C(N)=O)c2)C1)C1CCCC1` (configuration not stated) | 8.027% | -9.251% |
| `Cc1ccc(CNCCC(O)(c2nccn2C)C(F)(F)F)o1` (configuration not stated) | 12.04% | -16.27% |
| `CC(Oc1ccccc1C(F)(F)F)C(=O)NS(=O)(=O)C(C)C` (configuration not stated) | 14.29% | 12.04% |
| `N#Cc1ccc2c(c1)CN(C(=O)c1nc[nH]n1)C2c1cnco1` (configuration not stated) | 17.03% | 0.9183% |
| `O=C(O)C(F)(F)F.O=C(O)C(F)(F)F.[H][C@@]12CN(Cc3cccc(F)c3)C[C@]1([H])OCCN2Cc1c(C)noc1C` | - | 39.31% |
| `CCSc1nc(N)c(NC(=O)c2ccc(C)cc2)c(=O)[nH]1` | 8.633% | 6.779% |
| `Cc1ccc(C)c(OCCN(C)C(=O)C2CCCN2C(N)=O)c1C` (configuration not stated) | 7.796% | -5.146% |